Source: article PMC8974011
Results are given in words; binding and its absence hold for the method and conditions named. Some binding calls cover weakened binding; strength is not graded here.

The chains behind the UniProt entries cited, without tags or fusion partners. Where a name states a change or a piece, a line headed by the entry shows the natural chain unless it says otherwise. A line that says so, or that is headed by a name, gives the form on record, which may keep a tag or linker.
UniProt P42224: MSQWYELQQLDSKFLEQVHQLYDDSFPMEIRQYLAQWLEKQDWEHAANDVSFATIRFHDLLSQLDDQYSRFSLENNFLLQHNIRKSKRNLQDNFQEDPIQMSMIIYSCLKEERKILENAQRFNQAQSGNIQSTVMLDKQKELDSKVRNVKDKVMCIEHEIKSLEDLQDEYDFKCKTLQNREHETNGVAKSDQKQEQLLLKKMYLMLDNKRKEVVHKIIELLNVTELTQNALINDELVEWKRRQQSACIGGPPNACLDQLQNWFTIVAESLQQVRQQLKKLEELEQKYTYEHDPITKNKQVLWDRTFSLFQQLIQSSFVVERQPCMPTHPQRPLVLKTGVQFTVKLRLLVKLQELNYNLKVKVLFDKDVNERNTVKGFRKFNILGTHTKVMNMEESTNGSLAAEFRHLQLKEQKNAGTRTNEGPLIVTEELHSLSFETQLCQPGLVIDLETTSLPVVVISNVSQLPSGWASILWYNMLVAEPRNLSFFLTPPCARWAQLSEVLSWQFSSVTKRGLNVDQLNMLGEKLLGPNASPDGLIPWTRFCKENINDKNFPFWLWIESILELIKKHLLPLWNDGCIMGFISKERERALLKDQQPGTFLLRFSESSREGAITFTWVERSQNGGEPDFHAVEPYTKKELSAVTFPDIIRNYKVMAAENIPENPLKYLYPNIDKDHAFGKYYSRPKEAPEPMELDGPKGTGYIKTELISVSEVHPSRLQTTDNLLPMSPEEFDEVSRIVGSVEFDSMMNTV
quadruple mutant R274W/T385A/R602L/Y701F of STAT1-GFP (QM-GFP) (P42224, form named): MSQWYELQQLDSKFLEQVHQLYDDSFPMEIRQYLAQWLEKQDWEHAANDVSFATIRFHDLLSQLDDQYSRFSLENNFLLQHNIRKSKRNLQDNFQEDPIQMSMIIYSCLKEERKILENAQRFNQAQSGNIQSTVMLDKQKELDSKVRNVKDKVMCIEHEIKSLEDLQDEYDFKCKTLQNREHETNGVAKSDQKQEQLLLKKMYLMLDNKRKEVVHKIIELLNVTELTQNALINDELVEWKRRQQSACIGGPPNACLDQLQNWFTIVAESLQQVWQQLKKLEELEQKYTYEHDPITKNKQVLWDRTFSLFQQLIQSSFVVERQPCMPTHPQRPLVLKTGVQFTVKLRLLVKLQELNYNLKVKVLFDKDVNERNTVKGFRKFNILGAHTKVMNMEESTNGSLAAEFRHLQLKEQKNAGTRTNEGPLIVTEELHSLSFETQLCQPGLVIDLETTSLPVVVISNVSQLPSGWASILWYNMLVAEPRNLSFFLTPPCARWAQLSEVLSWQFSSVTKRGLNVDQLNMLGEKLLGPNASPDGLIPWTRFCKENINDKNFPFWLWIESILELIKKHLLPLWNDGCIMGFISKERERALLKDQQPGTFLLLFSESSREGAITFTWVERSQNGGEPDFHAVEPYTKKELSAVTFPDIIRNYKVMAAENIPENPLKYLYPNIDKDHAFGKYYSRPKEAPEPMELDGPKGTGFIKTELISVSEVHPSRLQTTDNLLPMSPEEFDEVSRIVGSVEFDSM

Biological target: endogenous STAT1 of HeLa cells (human (endogenous in HeLa)) (UniProt P42224)
Assay: native gel or EMSA; extracts of IFNγ-stimulated HeLa cells incubated with [33P]-labelled 2xGAS duplex DNA (two tandem GAS sites); super-shift with STAT1 antibody; competition with 750-fold molar excess of unlabelled M67 DNA; 4.8% acrylamide gel at 4 °C; only DNA-bound complexes are seen

| binding | Substance |
| --- | --- |
| no binding | quadruple mutant R274W/T385A/R602L/Y701F of STAT1-GFP (QM-GFP) (from UniProt P42224 1-746) |
| binds | pEGFPN1-STAT1α (WT-GFP): human STAT1 (amino acids 1–746) with carboxy-terminal green fluorescent protein (from UniProt P42224 1-746) |
